HELM strings list residues between dots; [ac] is acetyl, [am] amide, other brackets name non-standard units.
Test: general procedure: Fmoc solid-phase peptide synthesis
Conditions: whole synthesis, scale of the general procedure 0.10 mmol
[1] = RP-C18 HPLC, UV detection at 214 nm

Row | Substance | final HPLC purity (214 nm) [%] | final HPLC purity [1] [%]
1 | PEPTIDE1{I.V.R.W.S.K.K.V.P.C.V.S}$$$$V2.0 | 96.6 | 96.5
2 | PEPTIDE1{I.L.R.W.S.R.K.L.P.C.V.S}$$$$V2.0 | – | 95.2

Source: article PMC9735595 (International Journal of Molecular Sciences, 2022)
